Experimental data reported in the supplement of paper PMC12819154, “High-throughput peptide-centric local stability assay extends protein–ligand identification to membrane proteins, tissues and bacteria” (Nature Structural & Molecular Biology, 2025).
Some of the results follow. Most entries show no effect beyond the scatter of the controls.

Amino acid sequences for entries named in this document (tags omitted). A change or cut given only in a name is not applied to a line headed by its entry.
UniProt P45563: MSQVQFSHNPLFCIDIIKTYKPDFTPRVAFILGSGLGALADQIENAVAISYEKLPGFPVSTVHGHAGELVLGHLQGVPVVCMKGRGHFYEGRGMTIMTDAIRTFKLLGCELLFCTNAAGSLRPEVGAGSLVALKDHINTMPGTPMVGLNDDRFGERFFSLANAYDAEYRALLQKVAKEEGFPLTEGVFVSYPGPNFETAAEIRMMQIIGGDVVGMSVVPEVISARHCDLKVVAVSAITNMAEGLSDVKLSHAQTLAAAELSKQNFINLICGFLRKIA
UniProt P37182: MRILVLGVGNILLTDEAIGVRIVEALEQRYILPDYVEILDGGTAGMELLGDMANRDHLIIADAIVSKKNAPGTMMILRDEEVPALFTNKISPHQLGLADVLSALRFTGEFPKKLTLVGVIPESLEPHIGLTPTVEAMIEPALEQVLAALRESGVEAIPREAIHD
UniProt P39353: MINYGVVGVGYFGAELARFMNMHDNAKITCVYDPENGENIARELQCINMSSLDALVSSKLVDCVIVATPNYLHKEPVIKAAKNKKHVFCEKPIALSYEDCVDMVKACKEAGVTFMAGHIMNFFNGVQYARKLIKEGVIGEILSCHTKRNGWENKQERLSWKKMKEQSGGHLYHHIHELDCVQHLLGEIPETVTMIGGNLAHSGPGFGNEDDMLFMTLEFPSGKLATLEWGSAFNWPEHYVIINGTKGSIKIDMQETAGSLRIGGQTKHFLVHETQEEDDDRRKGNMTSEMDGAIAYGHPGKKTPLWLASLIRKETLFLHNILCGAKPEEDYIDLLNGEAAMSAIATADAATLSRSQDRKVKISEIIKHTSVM
UniProt P37657, whole entry: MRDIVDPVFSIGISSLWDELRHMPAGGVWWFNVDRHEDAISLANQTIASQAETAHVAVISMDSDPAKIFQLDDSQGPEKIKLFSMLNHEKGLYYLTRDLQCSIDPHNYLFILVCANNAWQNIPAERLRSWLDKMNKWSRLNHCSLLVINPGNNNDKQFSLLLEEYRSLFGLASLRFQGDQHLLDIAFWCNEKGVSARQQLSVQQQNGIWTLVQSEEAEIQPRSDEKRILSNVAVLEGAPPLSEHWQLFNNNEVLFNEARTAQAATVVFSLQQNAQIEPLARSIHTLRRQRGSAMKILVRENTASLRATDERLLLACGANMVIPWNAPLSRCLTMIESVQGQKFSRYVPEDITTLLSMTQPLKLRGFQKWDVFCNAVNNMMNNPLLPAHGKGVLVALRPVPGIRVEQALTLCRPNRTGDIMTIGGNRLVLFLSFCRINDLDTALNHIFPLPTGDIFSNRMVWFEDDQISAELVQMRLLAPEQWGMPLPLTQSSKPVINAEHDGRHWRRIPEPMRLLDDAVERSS

Each target was assayed with CC1(C)S[C@@H]2[C@H](NC(=O)[C@H](N)c3ccccc3)C(=O)N2[C@H]1C(=O)O [ampicillin] (assay: log2 fold change of tryptic peptide abundance, ligand vs vehicle (limited proteolysis) (log2 ratio); higher = more trypsin-susceptible (destabilized)). Conditions: ligand concentration: 10 uM; sample: E. coli crude lysate.
Work on “UniProt P39382 (peptide sequence: EKNPIEVYK, peptide start residue: 171)” yielded a log2 fold change of 0.362.
In the case of “UniProt P45563 (peptide sequence: LSHAQTLAAAELSK, peptide start residue: 249)”, the log2 fold change is reported as -0.102.
For “UniProt P37182 (peptide sequence: FTGEFPKK, peptide start residue: 106)”, the log2 fold change was -0.924.
With “UniProt P39353 (peptide sequence: NGWENKQER, peptide start residue: 149)” the log2 fold change was -0.227.
“UniProt P37657 (peptide sequence: GVLVALRPVPGIR, peptide start residue: 391)” was tested, and the log2 fold change was -0.239.
